According to patent US20180230225A1 (LEGEND BIOTECH USA, published 2018):
Results are given in words; binding and its absence hold for the method and conditions named. Some entries that bind do so weakly or less than the wild type. For part of these data: Tags and fused reporters may be left off the sequences shown. One block for each binder: values may come before it.

The chains behind the UniProt entries cited, without tags or fusion partners. Residues count along the entry.
UniProt Q02223, residues 1-54: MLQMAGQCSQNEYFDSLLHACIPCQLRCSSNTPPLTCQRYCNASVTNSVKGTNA

Legend:
[1] = molecular target: T1, recombinant human CD38 protein having a C-terminal His tag (ACRO Biosystems, Cat No.: CD8-H5224) (human) (UniProt P28907); assay: phage ELISA on the recombinant antigen, by a process similar to the one described for BCMA
T1 sequence (looked up): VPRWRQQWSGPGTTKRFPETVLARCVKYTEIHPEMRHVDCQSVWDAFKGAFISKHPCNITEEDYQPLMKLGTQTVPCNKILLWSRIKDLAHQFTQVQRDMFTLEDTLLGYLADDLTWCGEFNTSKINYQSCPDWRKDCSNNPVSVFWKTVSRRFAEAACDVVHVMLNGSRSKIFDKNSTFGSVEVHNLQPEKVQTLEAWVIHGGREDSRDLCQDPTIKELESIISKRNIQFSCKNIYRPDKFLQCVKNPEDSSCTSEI

[2] = molecular target: T2, recombinant human CD20 protein having a C-terminal Fc tag (ACRO Biosystems, Cat No.: CD0-H526a) (human) (UniProt P11836); assay: as above
T2 sequence (looked up): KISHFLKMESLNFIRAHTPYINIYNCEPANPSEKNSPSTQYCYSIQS

[3] = molecular target: recombinant human BCMA protein having a C-terminal Fc tag (ACRO Biosystems, Cat No.: BC7-H5254) (human) (UniProt Q02223); assay: phage ELISA: plate coated with recombinant human BCMA protein (Fc control protein in parallel) or CHO-BCMA cells; phage supernatant, HRP anti-M13, A450

binding [1]: binds
B1: 38A37730 (VHH)
VHH: AVQLVDSGGGLAQTGGSLRLSCAASQGIFTINAMGWYRQVPGKQRELVAEVSSGGRTDYADSVKGRFTISRDNAKNTVYLQMNSLKPEDTGVYYCRVSGWHVFVGDRIVWGQGTLVTVSS

binding [2]: binds
B2: CD20 VHH (VHH)
VHH: PVQLVESGGGLVQAGDSLRLSCAASGRTFGIGTMGWFRQPPGKEREFVAAIRWSTGGTRYADSVKGRFTISRDNAKLTVDLQMDSLKPEDTAVYYCAADRLSLDLSGRYHYNPAVYDYWGQGTQVTVSS

binding [3]: binds
B3: 269A37348 (VHH)
VHH: QVKLEESGGRLVQPRGSLRLSCAGSGRTFSTYGMAWFRQAPGKEREFVASKASMNYSGRTYYADSVKGRFTIARDNAKNMVFLQMNNLKPEDTAVYYCAAGTGCSTYGCFDAQIIDYWGKGTLVTVSS
